The nature of this series: Temperature of the cell suspension under NIR light (photothermal effect). Also on record: species or system human. The conditions noted are these: for photothermal effect, temperature of the media: 2 μM, 730 nm light at 80 mW/cm^2 for 10 min.

The text below walks through data of patent US20250170098A1, “MOLECULAR JACKHAMMER FOR MECHANICAL DESTRUCTION OF CELLULAR STRUCTURE” (William Marsh Rice University, priority 2022, published 2025).

The structures appear in SMILES notation.

Take `CN1/C(=C\C=C2C=C(/C=C/C3=[N+](CCCCCC(=O)NCCCCCCN)c4ccc5ccccc5c4C3(C)C)CCC\2)C(C)(C)c2c1ccc1ccccc21` [Cy7.5-amine]: the “photothermal effect, temperature of the media” value is “no photothermal effect”.

With `CC1(C)C(/C=C/C=C/C=C/C=C2\N(CCCCS(=O)(=O)O)c3ccc4ccccc4c3C2(C)C)=[N+](CCCCS(=O)(=O)[O-])c2ccc3ccccc3c21` [ICG, indocynine green], the “photothermal effect, temperature of the media” value is on record as “did not cause a photothermal effect”. The “photothermal effect, temperature of the medium” value (32 μM up to 400 μM, 730 nm light at 80 mW/cm^2) is “significant temperature increase”.
